Values from PubChem BioAssay AID720505 (Drosophila RNAi Screening Center, 2013)
Aim: 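Genes needed for store-operated calcium entry in fly cells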 (primary screen). System: Drosophila S2R+ cells. Knock-down reagent: long dsRNA against Drosophila genes. Challenge: thapsigargin (2 µM) in calcium-free buffer to empty internal stores, then 2 mM calcium added back. Measurement: 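Fluo-4 signal in 384-well plates read on a FLIPR after thapsigargin (2 µM, calcium-free) store depletion and 2 mM calcium add-back; unnormalised mean endpoint per well; screen run twice, selected wells retested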. Direction: calcium signal and retest calcium signal: higher = more calcium entry after store depletion. Active means: 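Knock-downs counted as hits when calcium entry dropped relative to STIM1 positive and Rho1 negative controls present on each plate; roughly 1500 genes called, with reductions of differing size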. Meaning of the calls: active = called as lowering calcium entry; inactive = not called.
The deposit covers about 20,000 reagents; below is an unselected part of those with a known target gene and a result. In the full data, about 2,100 (10%) are marked active. 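Raw plate signals without normalisation; calls rest on control-based scores that were not deposited; replicate 2 separates called from uncalled poorly.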 Unmarked entries are inactive. A plus sign joins genes that one reagent is predicted to hit. Not given: the amount of reagent, the time to read-out.

predicted target | DRSC id | calcium signal, replicate 1 | calcium signal, replicate 2 | retest calcium signal, replicate 1 | retest calcium signal, replicate 2
Dip-C | DRSC15855 | 109 | 142 | – | –
SA2 | DRSC08385 | 120 | 136 | – | –
CG17325 + CG42305 | DRSC02602 | 131 | 88.3 | – | –
CG2267 | DRSC15435 | 216 | 189 | – | –
CG30414 | DRSC04372 | 104 | 166 | – | –
CG7379 | DRSC16237 | 51 (active) | 191 | 269 | 70.1
CG9752 | DRSC04562 | 183 | 81.4 | – | –
CG14423 | DRSC17920 | 105 | 138 | – | –
Ts | DRSC00795 | 87.3 | 90.9 | – | –
Ts | DRSC22168 | 100 | 257 | – | –
Hap40 | DRSC20085 | 119 | 106 | – | –
sphinx2 | DRSC22188 | 118 | 202 | – | –
CG32052 | DRSC10966 | 98.3 | 90.7 | – | –
CG17636 | DRSC20648 | 130 | 80.3 | – | –
SPE | DRSC15135 | 172 | 205 | – | –
gpp | DRSC12515 | 93.7 | 113 | – | –
gpp | DRSC12516 | 161 | 172 | – | –
CG4953 | DRSC02792 | 101 | 104 | – | –
CG11112 | DRSC06038 | 115 | 134 | – | –
Spg7 | DRSC18469 | 103 | 135 | – | –
lectin-46Ca | DRSC06612 | 148 | 150 | 75.9 | 108
pn | DRSC18822 | 130 | 139 | – | –
CG14711 + Zaf1 | DRSC14934 | 175 | 140 | – | –
dan | DRSC14406 | 243 | 304 | – | –
CG13690 | DRSC00359 | 219 | 136 | – | –
CG14322 | DRSC14801 | 153 | 79 | – | –
CG7856 | DRSC04896 | 155 | 184 | – | –
dac | DRSC03518 | 90.4 | 88.2 | – | –
MtnB | DRSC22744 | 93.2 | 187 | – | –
nullo | DRSC18807 | 210 | 139 | – | –
CG12129 | DRSC06105 | 176 | 118 | – | –
CG2006 + Spase12 | DRSC14316 | 123 | 108 | – | –
His4:CG33883 + His4:CG33889 + His4:CG33899 + 20 more | DRSC21268 | 56.3 (active) | 139 | – | –
Sar1 | DRSC17049 | 150 | 169 | – | –
Sar1 | DRSC22115 | 64.5 | 82.1 | – | –
CG30031 + deltaTry + CG30025 + 1 more | DRSC21262 | 155 | 118 | – | –
Ccdc85 | DRSC00501 | 83.8 | 80.6 | – | –
Ccdc85 | DRSC23173 | 137 | 115 | – | –
pad | DRSC14227 | 98.1 | 160 | – | –
CG43131 | DRSC12046 | 8593 | 182 | – | –
Cyp49a1 | DRSC06737 | 136 | 169 | – | –
Cyp49a1 | DRSC07367 | 113 | 146 | – | –
TfIIEbeta | DRSC08701 | 109 | 102 | – | –
CG32625 | DRSC18994 | 94.8 | 101 | – | –
Cdk4 | DRSC07358 | 138 | 138 | – | –
ss | DRSC17069 | 143 | 139 | – | –
CG4313 | DRSC18514 | 98.5 | 101 | – | –
Muc4B | DRSC18062 | 148 | 123 | – | –
Muc4B | DRSC18063 | 115 | 104 | – | –
CG32813 | DRSC17948 | 90.8 | 109 | – | –
Cdc5 | DRSC08577 | 120 | 77.9 | – | –
CYLD | DRSC02870 | 195 | 174 | – | –
kay | DRSC15048 | 216 | 140 | – | –
kay | DRSC16977 | 81.2 | 108 | – | –
Fmo-1 | DRSC04328 | 144 | 128 | – | –
CG15617 | DRSC06570 | 168 | 132 | – | –
Oatp58Dc | DRSC04363 | 101 | 90.4 | – | –
CG33704 | DRSC03838 | 89.1 | 7964 | – | –
Ndae1 | DRSC00975 | 57.1 (active) | 88 | – | –
Ndae1 | DRSC02770 | 116 | 210 | – | –
rgn | DRSC11609 | 55.2 (active) | 110 | – | –
CG1236 | DRSC12203 | 115 | 89.2 | – | –
CG1137 | DRSC12529 | 123 | 172 | – | –
Psa | DRSC08152 | 134 | 179 | – | –
CG9588 | DRSC16504 | 127 | 210 | – | –
Sptz | DRSC15758 | 60.7 (active) | 112 | – | –
CG18233 | DRSC10308 | 69.7 | 138 | – | –
CG17721 | DRSC15253 | 118 | 104 | – | –
Ogdh | DRSC09854 | 101 | 107 | – | –
Ogdh | DRSC09855 | 79.6 | 145 | – | –
ovm + CG31975 | DRSC22146 | 109 | 151 | – | –
sced | DRSC04990 | 163 | 95.5 | – | –
CG3662 | DRSC00626 | 101 | 246 | – | –
Hsepi | DRSC04986 | 119 | 233 | – | –
ATPsynepsilonL | DRSC14548 | 70 (active) | 89.5 | – | –
Mvd | DRSC20096 | 108 | 121 | – | –
CG12951 | DRSC14579 | 56.9 (active) | 81.7 | – | –
CG4650 | DRSC02767 | 91.1 | 96.5 | – | –
Arglu1 | DRSC02909 | 216 | 180 | – | –
dcma | DRSC00246 | 89.4 | 130 | – | –
dcma | DRSC00338 | 168 | 97.4 | – | –
Ing5 | DRSC03188 | 87.7 | 109 | – | –
wg | DRSC03636 | 145 | 94.2 | – | –
